Reference: PubChem BioAssay AID977622 (Broad Institute, 2014)
Some of the results follow. Shown are side measurements of this screen, not its main read-out; they come without a call.

Columns and labels:
[1] = wild-type E. coli growth inhibition versus h38 humanized strain – h38 mutant RFP, wild-type GFP, cherry-pick, dose response (AID 977622); conditions: E. coli mixed culture, 24 h, total growth OD600 at 50 uM
[2] = tested on: E. coli h38 humanized mutant ribosome RFP fluorescence, mixed culture, 24 h; experiment: as above; conditions: h38 mutant RFP at 50 uM

Row | SMILES | activity change [1] | activity change [2]
1 | C[C@@H](Nc1nc(-c2ccccc2)nc2c1oc1ccccc12)C(=O)O | -5.92% | -20.7%
2 | COc1ccc(C2=NN(C(=O)c3cccnc3)C(c3ccccc3)C2)cc1 (stereo not drawn) | -4.65% | 11.2%
3 | O=S(=O)(c1cnc(Cl)c(Cl)c1)N1CCc2ccccc21 | -11.7% | 14.1%
4 | C[C@@H]1CN([C@H](C)CO)C(=O)CCCn2nncc2CO[C@@H]1CN(C)C(=O)Nc1ccc(C(F)(F)F)cc1 | -35.5% | -10.2%
5 | COc1ccc(C2CN=NC23CCc2ccccc2C3=O)cc1 (stereo not drawn) | -23.6% | –
6 | O=S1(=O)N[C@H](Cc2ccccc2)COc2cccc(N3CCC[C@H]3CO)c21 | -63.2% | -34.9%
7 | O=S1(=O)N[C@@H](Cc2ccccc2)COc2cc(N3CCC[C@H]3CO)ccc21 | 9.16% | 59.2%
8 | C(=C/c1nccc2c1[nH]c1ccccc12)/c1ccc2c(c1)OCO2 | 0.824% | -25.6%
9 | N#Cc1cccc(-c2ccc3c(c2)[C@H]2[C@H](CCN2C(=O)c2ccccc2F)[C@H](CO)N3)c1 | -37.6% | -10.3%
10 | C[C@H]1CCCCO[C@H](CN(C)C)[C@@H](C)CN([C@@H](C)CO)C(=O)c2cc(NC(=O)Nc3cccc4ccccc34)ccc2O1 | -16.9% | –
11 | CC(=O)NCCOc1nc(N2CCCCC2)nc(N2CCCCC2)n1 | -24.8% | 18.6%
12 | COC(=O)c1cc(C(=O)c2c(C)cc3ccccn23)cc([N+](=O)[O-])c1 | -3.82% | -1.14%
13 | CC(C)(C)C1CCC(C(=O)OCC(=O)N2CCN(C(=O)c3ccco3)CC2)CC1 (stereo not drawn) | -11.6% | 15.5%
14 | O=C(NCc1ccccc1)c1nc(S(=O)(=O)Cc2ccccc2)ncc1Cl | -19.7% | 16.6%
15 | CCOC(=O)c1c(CS(=O)(=O)c2ccccc2)n(C)c2cc(Br)c(O)cc12 | -45.9% | –
16 | O=C(Cc1cccnc1)N1CC(=O)N2[C@H](C1)[C@@H](c1ccc(C3=CCCCC3)cc1)[C@@H]2CO | -23.1% | 1.04%
17 | C[C@@H]1CN([C@H](C)CO)C(=O)c2cccc(NC(=O)Nc3ccc4c(c3)OCO4)c2O[C@@H]1CN(C)C(=O)Nc1ccc2c(c1)OCO2 | -19.7% | 27.7%
18 | CN1CCN(C(=O)C[C@H]2CC[C@@H]3[C@H](COC[C@@H](O)CN3C(=O)Nc3ccc(Cl)cc3)O2)CC1 | -59.4% | 81.7%
19 | COCC#Cc1ccc2c(c1)O[C@H](CN(C)C(=O)c1ccccc1)[C@@H](C)CN([C@H](C)CO)S2(=O)=O | -23.5% | -15.2%
20 | COc1ccc(CN(C)C(=O)COC(=O)c2c(-c3ccccc3Cl)noc2C)cc1 | -69.2% | -8.41%
21 | O=S(=O)(c1ccccc1)N1C[C@@H]2[C@H](c3ccccc31)[C@H](CO)N2Cc1ccccc1 | -75.3% | 45.9%
22 | O=C(Nc1cccc(-c2cn3ccccc3n2)c1)c1ccccc1 | -29.1% | -35.9%

Row | SMILES | activity change [1] | activity change [2]
23 | CC(=O)Nc1ccc(-c2ccnc3c2CC(C)(C(=O)Nc2ccc4c(c2)OCO4)O3)cc1 (stereo not drawn) | -26.6% | –
24 | Fc1ccc(-c2nnc(-c3ccc4ccccc4c3)o2)cc1 | -1.23% | -7.27%
25 | O=[N+]([O-])c1ccc2c(c1)S(=O)c1ccccc1-2 (stereo not drawn) | -21% | 20.9%
26 | COc1cccc(NC(=O)C(c2ccccc2)N2CCN(c3ccccn3)CC2)c1 (stereo not drawn) | -9.98% | –
27 | [O-][n+]1ccccc1/C=C/c1ccccc1 | -5.49% | -13%
28 | COc1ccc(Cc2nnc(Nc3ccc(C)cc3)o2)cc1OC | -9.42% | 35.4%
29 | O=C(Nc1nc(-c2ccc3ccccc3c2)cs1)C1CCN(S(=O)(=O)c2cccs2)CC1 | 4.53% | 34.8%
30 | O=C(Nc1ccc(F)c(Cl)c1)C1CC2CCC1C2 (stereo not drawn) | -58.8% | -2.09%
31 | O=C(Nc1ccccc1)N1CCCCN2[C@@H](CO)[C@H](c3ccc(Br)cc3)[C@@H]2C1 | -2.49% | -0.808%
32 | C/C=C/c1ccc2c(c1)[C@@H]1[C@@H](CCN1S(=O)(=O)c1ccccc1OC)[C@H](CO)N2C | -49.2% | -37.9%
33 | O=C(CCNC(=O)c1ccco1)Nc1cccc(Br)c1 | -27.7% | –
34 | Fc1cccc(CCN2C(=S)NC[C@@H]2CC2CCCCC2)c1 | – | -21.7%
35 | CCOc1ccc(OCC)c(NC(=O)CSc2nc3c(c(=O)n(C)c(=O)n3C)n2C(C)C)c1 | -46.3% | -2.93%
36 | O=C(O)CSc1nnc(-c2ccc(Cl)cc2Cl)n1-c1ccc(Br)cc1 | -32.7% | -24.8%
37 | C=CCN(CC(O)c1cccc([N+](=O)[O-])c1)C(C)CCc1ccccc1 (stereo not drawn) | -83.4% | 7.02%
38 | Cc1ccc(NC(=O)c2ccc([N+](=O)[O-])o2)c(C)c1 | -11.1% | -22.8%
39 | CN(CC(=O)Nc1ccc(S(=O)(=O)N2CCCC2)cc1)CC(=O)Nc1ccc(F)c(F)c1F | – | -0.652%
40 | COc1ccc(Cl)cc1C(=O)OCC(=O)c1ccc[nH]1 | -8.22% | 22.3%
41 | Nc1ncncc1-c1ccc(Cl)cc1 | -23.8% | -17.5%
42 | COC(=O)c1c(C)oc(C)c1S(=O)(=O)NC(c1ccccc1)c1ccccc1 | -71.9% | 41.2%
43 | COc1ccc(NC(=O)Nc2cccc3c2O[C@@H](CN(C)S(=O)(=O)c2ccc(Cl)cc2)[C@@H](C)CN([C@@H](C)CO)C3=O)cc1 | -53.5% | 1.47%
44 | Clc1ccc(-c2nc3ccc(Br)cn3c2Cc2ccsc2)cc1 | -63.1% | 44.8%

Row | SMILES | activity change [1] | activity change [2]
45 | O=C(Nc1cccc(Cl)c1)N1C[C@@H]2[C@H](c3ccccc31)[C@@H](CO)N2CC1CCCCC1 | -49.3% | -10.9%
46 | CN(C)S(=O)(=O)c1cccc(NC(=O)c2ccc3c(c2)S(=O)(=O)N=C2CCCCCN23)c1 | -1.92% | –
47 | COc1cc(C(=O)NCCc2c[nH]c3ccccc23)ccc1OCc1c(C)noc1C | -30.9% | -28.6%
48 | CN(C)CC(=O)N[C@@H]1CC[C@@H](CCNC(=O)Nc2ccc(Cl)cc2)O[C@H]1CO | -0.267% | -4.53%
49 | Cc1n[nH]c(C)c1S(=O)(=O)N1CCCC(C(=O)Nc2ccc(Br)cc2)C1 (stereo not drawn) | -19.3% | –
50 | COc1ccc(C#Cc2ccc([C@@H]3[C@H](CO)N4CCCCN(C(=O)Nc5cccc(F)c5)C[C@@H]34)cc2)cc1 | -1.06% | 4.98%
51 | CN(c1ccccc1)S(=O)(=O)c1cccc(C(=O)OCC(=O)NCc2ccco2)c1 | -37.5% | –
52 | COc1cc(OC)nc(Oc2ccccc2C(=O)Oc2ccccc2Cl)n1 | -50.2% | -11.4%
53 | COc1ccc(CNC(=O)c2sc3nc4c(c(C(F)(F)F)c3c2N)CCC4)cc1OC | -26.9% | -28.2%
54 | COc1ccc(OC)c(-c2nn(-c3ccccc3)cc2C(=O)N2CCc3ccccc3C2)c1 | -9.25% | –
55 | CN(C)c1cccc(C(=O)Nc2ccc3nc4n(c(=O)c3c2)CCCCC4)c1 | -54.8% | –
56 | O=C(c1ccc(Cl)cc1)N1CCN(c2cccc3[nH]ccc23)CC1 | -36.9% | 8.92%
57 | O=C(C[C@H]1CC[C@H]2[C@@H](COC[C@@H](O)CN2C(=O)Nc2ccc(Cl)cc2)O1)N1CCCCC1 | -82% | -21.8%
58 | CSc1ccccc1NC(=O)c1ccccc1N(Cc1ccccc1)S(C)(=O)=O | -27.3% | 1.89%
59 | O=C(COC(=O)c1ccccc1O)NCCC1=CCCCC1 | -6.59% | 7.23%
60 | O=C(c1cc(S(=O)(=O)N2CCOCC2)ccc1Cl)N1CCc2ccccc2C1 | -18.8% | –
61 | O=C(C[C@H]1CC[C@H]2[C@@H](COC[C@@H](O)CN2C(=O)Nc2cc(Cl)cc(Cl)c2)O1)N1CCOCC1 | -28.3% | 16.3%
62 | Cc1ccc(CSCC(=O)Nc2ccccc2F)cc1 | -7.49% | -11%
63 | COc1ccccc1-c1noc2ncnc(Nc3ccccc3C)c12 | -3.5% | –
64 | COc1ccc(-n2c(COc3cccc(C)c3)n[nH]c2=S)cc1 | – | 21.9%
65 | COC(=O)c1ccc2nc(-c3ccco3)c(Cc3ccc(C)cc3)n2c1 | -16.6% | –
66 | Cc1cc(CNC(=O)COc2ccc(C)c(C)c2)c2ccccc2n1 | – | -0.731%

Row | SMILES | activity change [1] | activity change [2]
67 | COC(=O)c1cc(S(=O)(=O)NCc2ccc3c(c2)OCO3)cn1C | -22.1% | -13.9%
68 | CC(C)C1C(c2ccccc2)N(C)C(c2ccccc2)CC1(O)c1ccccc1 (stereo not drawn) | -81% | –
69 | C[C@@H]1CCCCO[C@@H](CN(C)C)[C@@H](C)CN([C@@H](C)CO)C(=O)c2cc(NC(=O)Nc3cccc4ccccc34)ccc2O1 | -8.59% | -3.02%
70 | COCCNc1cc(-c2ccccc2)nc2cc(-c3cccc(F)c3)nn12 | 13.6% | -1.12%
71 | Cc1ccc(Nc2cc(C(=O)NCCCN3CCOCC3)c3ccccc3n2)cc1C | -11.1% | 19.2%
72 | CCOC(=O)c1cc(-c2ccc(OC)cc2)n[nH]1 | -11.8% | -18.4%
73 | Cc1ccc(OCCn2c(=S)[nH]c3c(N)ncnc32)cc1 | -42.1% | –
74 | O=C(Nc1ccccc1F)N1CCCCN2[C@@H](CO)[C@H](c3ccc(-c4cccnc4)cc3)[C@@H]2C1 | -0.477% | -6.61%
75 | Cc1ccc(C(=O)C2CCN(CC(=O)Nc3nc(C)cs3)CC2)cc1 | -57.1% | –
76 | O=C(Cc1c(Cl)cccc1Cl)Nc1cccc(S(=O)(=O)N2CCOCC2)c1 | -35.5% | 9.07%
77 | COc1ccccc1CCNC(=O)c1cccc(NC(=O)CC2SC(N3CCCCC3)=NC2=O)c1 (stereo not drawn) | -30.1% | -6.88%
78 | O=C(O)c1ccc2c(c1)N(Cc1ccccc1)C(=O)c1ccccc1S2 | -13.8% | -3.99%
79 | CC(C)n1c(C(=O)OCC(=O)NCc2ccc3c(c2)OCO3)cc2sccc21 | -62.9% | -9.86%
80 | Cc1cc2c(sc3c(C)ccc(C)c32)c(C)n1 | -55.6% | -10.5%
81 | Cc1ccc(Cl)cc1N1CCN(C(=O)c2ccc3nc[nH]c3c2)CC1 | -20.8% | –
82 | Cc1ccc(-c2ccc3c(c2)O[C@@H](CN(C)Cc2cccc(C(=O)O)c2)[C@H](C)CN([C@@H](C)CO)S3(=O)=O)cc1 | -64.4% | 11.7%
83 | CCOc1ccc(NS(=O)(=O)c2ccc(C(=O)N3CCN(c4ncccn4)CC3)cc2)cc1 | -32.2% | 3.35%
84 | Cc1cccc(NC(=O)c2n[nH]c([N+](=O)[O-])c2Br)c1C | -73.3% | -41.2%
85 | C[C@@H]1CCCCO[C@@H](CN(C)C(=O)c2ccccc2)[C@H](C)CN([C@@H](C)CO)C(=O)c2cc(NC(=O)Cc3ccccc3)ccc2O1 | 2.71% | 27.8%

Whole records, quoted from the list. Values in the order: activity change [1] | activity change [2]
`CC(C)C1C(c2ccccc2)N(C)C(c2ccccc2)CC1(O)c1ccccc1` (stereo not drawn) in the list: -81% | –
`Cc1ccc(C(=O)C2CCN(CC(=O)Nc3nc(C)cs3)CC2)cc1` in the list: -57.1% | –
`COCCNc1cc(-c2ccccc2)nc2cc(-c3cccc(F)c3)nn12` in the list: 13.6% | -1.12%
`C[C@@H]1CCCCO[C@@H](CN(C)C)[C@@H](C)CN([C@@H](C)CO)C(=O)c2cc(NC(=O)Nc3cccc4ccccc34)ccc2O1` in the list: -8.59% | -3.02%
